# Data reported in PubChem BioAssay (Tox21).
# Inconclusive results, whose numbers are uncertain, are shown with a selection of clear calls. Where the call is inconclusive, the potency comes from a doubtful curve fit. Calls of active or inactive are those of the source. The call rests on the fitted dose curve.
# Biological target: Beta-2 adrenergic receptor (Homo sapiens) (UniProt P07550)
# Assay: Adrenergic beta2 receptor (ADRB2) small molecule agonists, cell-based qHTS assay (AID 1963593);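 on activation: CHO cells stably overexpressing human ADRB2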
# Details: CHO-ADRB2 cells, cAMP HTRF, 30 min; activation: at 92.4 µM (top of the series) unless noted
# Outline: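 CHO cells stably over-expressing ADRB2 were plated overnight at 37C, then dosed with compounds plus a stimulation mix containing 100uM IBMX and 25uM Ro-20-1724 for 0.5hr at room temperature. cAMP was measured by HTRF competition, 1hr.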
# On the % scale 0 is the no-effect control and ±100 the full control effect; potency means the concentration at half of the fitted maximal effect.
Structure (SMILES),activation,Potency
Oc1ccc2c(c1)CCC2,inconclusive: 2.62%,
CN(C)CCN(C)CCN(C)C,,"inconclusive: 4.18 µM [inhibitor, single point]"
COCC(C)OC(C)=O (centres undefined),inconclusive: 21.4%,
CC(=O)OCC(=O)[C@@]1(O)CC[C@H]2[C@@H]3CCC4=CC(=O)C=C[C@]4(C)[C@H]3[C@@H](O)C[C@@]21C,inactive: -12.9% [at 42.5 µM],
CCCC(=O)C(C)=O,inconclusive: 13.6%,
O=c1[nH]c2ccccc2c(=O)n1CCCl,inactive: -10.7% [at 42.5 µM],
CC(C)C(=O)C(C)C,inactive: 26.2%,
O=C1CCCN1C1CCCCC1,,"inconclusive: 77 µM [inhibitor, single point]"
Cc1cccc(C)c1NC(=O)c1ccc(N)cc1,inconclusive: -30.6% [at 42.5 µM],
c1ccc(CCc2ccccc2)cc1,inactive: 4.13%,
NC(=O)Cc1cccc2ccccc12,,"inconclusive: 17.2 µM [inhibitor, single point]"
CC(C)=CCO,,inconclusive: 28 µM [inhibitor] and inactive
Cc1c(NC(C)C)c(=O)n(-c2ccccc2)n1C,inconclusive: 16.4% [at 42.5 µM],
CC(=O)OCCc1ccccc1,inactive: -0.884%,
Brc1cc(Br)c(Oc2cc(Br)c(Br)cc2Br)cc1Br,inconclusive: -0.62% [at 42.5 µM],
CC(C)(C)C(=O)CCc1ccc(Cl)cc1,inactive: 0.645%,
ClC(c1ccccc1)(c1ccccc1)c1ccccc1,inconclusive: -49.5%,
O=C(Cl)c1c(Cl)cccc1Cl,inactive: -3.13%,
CNC(=O)c1ccccc1,inconclusive: 8.27%,

# Ordered by number of heavy atoms (rising): 3 of the compounds above.
Structure (SMILES),activation,Potency
c1ccc(CCc2ccccc2)cc1,inactive: 4.13%,
CC(C)(C)C(=O)CCc1ccc(Cl)cc1,inactive: 0.645%,
Cc1cccc(C)c1NC(=O)c1ccc(N)cc1,inconclusive: -30.6% [at 42.5 µM],
